Some of these results come from one statement about several compounds together.
System: DJ-1
Conditions: N27 cells

Structure (SMILES): CCCC(=O)[O-].[Na+] [sodium butyrate]
- concentrations of peak effects on DJ-1 expression: 0.15 to 0.3 mM

Reference: patent US10130604B2, “Composition and method for treating neurodegenerative disease” (priority 2012, dated 2018)
